Some of the results follow.
Legend:
SLTM = SLTM (UniProt Q9NWH9); assay: dose-dependent thermal stabilisation call (2D-TPP, DLPTP, 10% FDR) (binary (1 = stabilised)); higher = stabilised by the compound; settings: system: HL-60 intact cells; concentration range 0.04-10 µM
STX2 = biological target: T1, STX2 (UniProt P32856); assay: as above; settings: system: HL-60 intact cells; concentration range 0.04-10 µM
T1 sequence (whole entry): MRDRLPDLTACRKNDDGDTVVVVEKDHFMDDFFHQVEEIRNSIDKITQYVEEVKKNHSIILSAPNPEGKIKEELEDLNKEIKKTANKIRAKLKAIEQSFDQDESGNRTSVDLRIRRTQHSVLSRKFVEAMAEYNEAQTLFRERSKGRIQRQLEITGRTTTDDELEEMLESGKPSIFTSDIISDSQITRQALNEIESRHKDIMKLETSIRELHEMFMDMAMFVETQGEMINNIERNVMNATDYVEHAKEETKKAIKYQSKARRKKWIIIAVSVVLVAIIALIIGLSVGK

Sequences of proteins named here, by UniProt entry; tags and fusion partners are left off. A change or cut given only in a name is not applied to a line headed by its entry.
UniProt Q9NWH9: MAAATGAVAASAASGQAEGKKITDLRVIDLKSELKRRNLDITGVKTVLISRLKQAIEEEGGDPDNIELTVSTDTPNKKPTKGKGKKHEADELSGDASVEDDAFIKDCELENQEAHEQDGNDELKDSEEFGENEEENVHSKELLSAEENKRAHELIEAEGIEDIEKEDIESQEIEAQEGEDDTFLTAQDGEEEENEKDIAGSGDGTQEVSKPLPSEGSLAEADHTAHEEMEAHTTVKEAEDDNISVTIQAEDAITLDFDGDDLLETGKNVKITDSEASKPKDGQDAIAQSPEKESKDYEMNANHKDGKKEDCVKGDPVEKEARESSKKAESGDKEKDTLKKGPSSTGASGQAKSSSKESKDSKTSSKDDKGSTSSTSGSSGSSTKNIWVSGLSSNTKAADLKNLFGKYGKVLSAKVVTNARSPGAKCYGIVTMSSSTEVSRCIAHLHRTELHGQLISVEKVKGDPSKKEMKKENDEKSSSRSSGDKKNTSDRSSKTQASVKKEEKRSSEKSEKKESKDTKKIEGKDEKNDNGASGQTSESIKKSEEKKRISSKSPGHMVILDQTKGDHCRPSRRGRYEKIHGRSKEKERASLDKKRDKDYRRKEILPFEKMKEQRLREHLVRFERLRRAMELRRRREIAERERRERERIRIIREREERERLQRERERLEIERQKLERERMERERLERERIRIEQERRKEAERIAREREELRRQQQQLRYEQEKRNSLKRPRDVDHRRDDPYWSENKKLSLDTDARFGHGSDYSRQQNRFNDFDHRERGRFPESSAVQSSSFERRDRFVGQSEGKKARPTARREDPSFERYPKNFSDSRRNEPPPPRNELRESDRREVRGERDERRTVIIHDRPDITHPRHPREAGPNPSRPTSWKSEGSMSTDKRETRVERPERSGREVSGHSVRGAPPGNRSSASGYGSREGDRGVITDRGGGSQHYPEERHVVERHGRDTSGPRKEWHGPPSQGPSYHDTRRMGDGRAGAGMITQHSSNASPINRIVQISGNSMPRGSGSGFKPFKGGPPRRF

With `COc1ccc(Cn2ccc3ccc(C(=O)NO)cc32)cc1` the “dose-dependent thermal stabilisation call” value (SLTM) was inactive: 0 and the “dose-dependent thermal stabilisation call” value (STX2) was inactive: 0.
